Among the data in paper PMC5653651 are binding values, retold here.

The target of assay [1] is CtNup145C (full-length) (Chaetomium thermophilum). Put plainly: pull-down; in vitro binding assay: purified prey in approximately fivefold molar excess over bait immobilised via ProtA, GST or Flag tag, in the presence of E. coli lysate; 50 min at 16 °C, HEPES–NB buffer (20 mM HEPES pH 7.5, 150 mM NaCl, 50 mM KOAc, 2 mM Mg(OAc)2, 5% glycerol, 0.01% NP40); SDS eluates, SDS-PAGE and coomassie staining; both purified.

Assay [2] deals with CtNup145C-CTD (Chaetomium thermophilum). Described as above.
The target in assay [3] is CtNup145C-NTD (Chaetomium thermophilum). The description is as above.
Assay [4] deals with CtY-vertex (CtNup145C–Nup85–Nup120 complex) (Chaetomium thermophilum). The assay is described as above.
For assay [5], the target named is GST-TEV-ScNup145C (Saccharomyces cerevisiae). Put plainly: affinity co-purification of co-expressed proteins; ScY-vertex from E. coli co-expressing the five proteins, GSH beads via GST-TEV-ScNup145C.

Results are given in words; binding and its absence hold for the method and conditions named. In cells and extracts the contact can be indirect. For some assays here: Binding can be weak; no strength is given.

B1: CtSec13 (protein, UniProt G0SA60 1-308)
chain: MSQQASGAQVITNSGHDDMIHDAVLDYYGRRLATCSSDRTIKIFEIDGDSQRLTETLKGHDGAVWCVSWAHPKYGNILASAGYDGKVFIWRELNGAWSRIYDFALHKASVNVVSWAPHEAGCLLACASSDGSVSVLEFKDNSTWDYVIFPAHGLGVNSVSWAPATSPGSIVSSKPGPKATGNRRFVTGGSDNTLKIWAYDPATNTYKMEREPLTGHTDWVRDVAWSPTVLQKSYIASASQDGTVRIWTSDPANPLAWNCKVLHFDSALWRVSWSLSGNVLAVSGSDNKVTLWKENLKGEWECVKTIEE
Take B1: the binding entry is reported as “binds” in assay [1], “binds” in assay [2], “no binding” in assay [3] and “binds” in assay [4].

B2: ScSec13 (protein, UniProt Q04491 1-297)
chain: MVVIANAHNELIHDAVLDYYGKRLATCSSDKTIKIFEVEGETHKLIDTLTGHEGPVWRVDWAHPKFGTILASCSYDGKVLIWKEENGRWSQIAVHAVHSASVNSVQWAPHEYGPLLLVASSDGKVSVVEFKENGTTSPIIIDAHAIGVNSASWAPATIEEDGEHNGTKESRKFVTGGADNLVKIWKYNSDAQTYVLESTLEGHSDWVRDVAWSPTVLLRSYLASVSQDRTCIIWTQDNEQGPWKKTLLKEEKFPDVLWRASWSLSGNVLALSGGDNKVTLWKENLEGKWEPAGEVHQ
As for B2, the binding result in assay [5] is reported as “binds”.
